# PubChem BioAssay AID1224826 – NIAID – 2016
# Screen: 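Genes that change LPS-induced Tnf promoter activity in mouse macrophages when knocked down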 (primary screen)
# System: RAW264.7 G9 macrophages from mouse bearing reporters for p65 (GFP) and the Tnf promoter (mCherry)
# Knock-down reagent: siRNA pool against mouse genes, 100 nM
# Duration: 16 h of LPS stimulation, after 2 days of siRNA transfection
# Treatment: bacterial lipopolysaccharide (Salmonella minnesota R595), 10 ng/ml
# Read-out: 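Imaged Tnf reporter mCherry in nuclei, minus background, normalised per plate to the median and expressed as robust z-scores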
# Reading the numbers: Tnf reporter robust z-score: higher = stronger Tnf promoter reporter signal after LPS; Tnf reporter intensity: higher = stronger Tnf promoter reporter signal
# Active means: 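a well counts as active at a score of -1.3 or below (Tlr4 knock-down control median) or above 3 (raised signal); controls and wells holding fewer than 50 cells are excluded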
# Calls: active = Tnf reporter clearly lowered or raised; inactive = no clear change in Tnf reporter
# In all, the deposit lists about 17,000 reagents; below is an unselected part. About 1,110 of them (6.6%) were called active. 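Active means lowered or raised reporter signal; replicate intensities are raw and not normalised per plate.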 The numbers tell different reagents against one gene apart. Not all columns of the deposit are shown.
target,reagent,Tnf reporter robust z-score,fewer than 50 cells in well,"Tnf reporter intensity, replicate 1",activity call
Or4k52 (olfactory receptor family 4 subfamily K member 52),1,-0.78,enough cells in well,151,inactive
"Rab8a (RAB8A, member RAS oncogene family)",1,1.73,enough cells in well,487,inactive
"Lsm8 (LSM8 homolog, U6 small nuclear RNA associated)",1,-2.06,enough cells in well,63.4,active
"Terf2ip (telomeric repeat binding factor 2, interacting protein)",1,0.55,enough cells in well,289,inactive
4930412M03Rik (RIKEN cDNA 4930412M03 gene),1,,fewer than 50 cells per well; well left out of calls,149,inactive
"Nsmce2 (NSE2/MMS21 homolog, SMC5-SMC6 complex SUMO ligase)",1,0.85,enough cells in well,369,inactive
Nup133 (nucleoporin 133),1,-0.99,enough cells in well,135,inactive
"Alad (aminolevulinate, delta-, dehydratase)",1,2.09,enough cells in well,276,inactive
"Pkmyt1 (protein kinase, membrane associated tyrosine/threonine 1)",1,-0.47,enough cells in well,164,inactive
"Cacna1b (calcium channel, voltage-dependent, N type, alpha 1B subunit)",1,-0.08,enough cells in well,132,inactive
Zfp202 (zinc finger protein 202),1,-0.87,enough cells in well,58.3,inactive
Snurf (SNRPN upstream reading frame),1,,fewer than 50 cells per well; well left out of calls,47.4,inactive
Pstpip2 (proline-serine-threonine phosphatase-interacting protein 2),1,-0.63,enough cells in well,127,inactive
Pstpip2 (proline-serine-threonine phosphatase-interacting protein 2),2,-0.22,enough cells in well,219,inactive
Smim3 (small integral membrane protein 3),1,,fewer than 50 cells per well; well left out of calls,125,inactive
Rasgrf1 (RAS protein-specific guanine nucleotide-releasing factor 1),1,0.31,enough cells in well,345,inactive
"Lamtor1 (late endosomal/lysosomal adaptor, MAPK and MTOR activator 1)",1,,fewer than 50 cells per well; well left out of calls,134,inactive
Galnt18 (polypeptide N-acetylgalactosaminyltransferase 18),1,1.24,enough cells in well,226,inactive
a (nonagouti),1,-0.3,enough cells in well,148,inactive
Xpr1 (xenotropic and polytropic retrovirus receptor 1),1,-0.27,enough cells in well,277,inactive
Tox3 (TOX high mobility group box family member 3),1,-1.04,enough cells in well,112,inactive
"P2rx4 (purinergic receptor P2X, ligand-gated ion channel 4)",1,0.23,enough cells in well,259,inactive
Apool (apolipoprotein O-like),1,-0.49,enough cells in well,172,inactive
Ott (ovary testis transcribed),1,,fewer than 50 cells per well; well left out of calls,93.2,inactive

Entries above whose gene name starts with T or t (2):
target,reagent,Tnf reporter robust z-score,fewer than 50 cells in well,"Tnf reporter intensity, replicate 1",activity call
"Terf2ip (telomeric repeat binding factor 2, interacting protein)",1,0.55,enough cells in well,289,inactive
Tox3 (TOX high mobility group box family member 3),1,-1.04,enough cells in well,112,inactive
